For this assay, the target named is Signal transducer and activator of transcription 3 (human (endogenous in RMF-EG)), P40763. As to the kind of experiment: co-IP; RMF-EG cells with or without IL-6 (20 ng/ml, 48 h), lysed in RIPA buffer; 1 mg protein with anti-STAT3 antibody overnight at 4 °C, protein A/G beads, three washes with RIPA buffer; blots with anti-NFκB p50, anti-NFκB p65 and anti-STAT3. The settings on record: remark: other sources report otherwise.

Drawing on paper PMC10568766, this text covers binding for one molecule.

No constants are given. Whether binding was seen depends on the method and setting. In cells and extracts the contact can be indirect. Some results given as binding are weak or reduced against the parent protein; the word gives no strength.

B1: NFκB p50, P19838 1-433 (protein)
chain: MAEDDPYLGRPEQMFHLDPSLTHTIFNPEVFQPQMALPTDGPYLQILEQPKQRGFRFRYVCEGPSHGGLPGASSEKNKKSYPQVKICNYVGPAKVIVQLVTNGKNIHLHAHSLVGKHCEDGICTVTAGPKDMVVGFANLGILHVTKKKVFETLEARMTEACIRGYNPGLLVHPDLAYLQAEGGGDRQLGDREKELIRQAALQQTKEMDLSVVRLMFTAFLPDSTGSFTRRLEPVVSDAIYDSKAPNASNLKIVRMDRTAGCVTGGEEIYLLCDKVQKDDIQIRFYEEEENGGVWEGFGDFSPTDVHRQFAIVFKTPKYKDINITKPASVFVQLRRKSDLETSEPKPFLYYPEIKDKEEVQRKRQKLMPNFSDSFGGGSGAGAGGGGMFGSGGGGGGTGSTGPGYSFPHYGFPTYGGITFHPGTTKSNAGMKHG
With B1, the binding entry was “binds”.
